The values that follow come from publication PMC7857730.

No constants are given. Whether binding was seen depends on the method and setting. Binding seen in cells or lysates may run through a third protein. Some entries that bind do so weakly or less than the wild type. Tags and fused reporters may be left off the sequences shown.

The target in the assay is T1, Gtr1-FLAG (S. pombe) (UniProt O74824).
T1 sequence: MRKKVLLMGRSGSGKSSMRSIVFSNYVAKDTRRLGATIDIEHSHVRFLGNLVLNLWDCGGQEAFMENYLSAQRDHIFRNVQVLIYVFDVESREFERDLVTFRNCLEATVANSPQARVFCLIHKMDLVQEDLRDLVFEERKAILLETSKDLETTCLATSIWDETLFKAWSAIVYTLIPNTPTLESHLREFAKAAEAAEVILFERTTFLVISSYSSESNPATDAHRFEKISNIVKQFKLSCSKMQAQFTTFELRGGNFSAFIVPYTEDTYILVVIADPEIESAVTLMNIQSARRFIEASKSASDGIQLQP
As to the kind of experiment: co-IP.

B1: Iml1-myc (protein, UniProt O74788 1-1496)
chain: MAITLNLWTHESSLFPNDAVLNYDLVPSAKPGDIFEIRAQNGDEIALQHNHSSTGKLHAKREKEPVYLMPSPLTDDLKRRHPNLQLSVVSHISSLLNIKNREPVVVKICEDKTNLEAEHVVIFFRDQFISRSDMWKLFRELCGKCVYLKQRVSFIGDVPGEIRCIWRKGKKCHSAYISERTKPIFRSESARFLIFIQMSEEMWHFEEDGELNYNKAIDGFLPDLFSFWRDLGTHHLVSIILFTRVEYSHHGPMCVWQPRSQKNSEKGSSIYPQNSFNASIDNEGGPYEDFFKVVVDNVSSRDWQPVLANLKLELAKFRQDVIVRKIKDENGREIEYICGRMTGSQEGNFLEVINMAVFQFQSDYIDRDLSRTGTSIIIVTPGTGLYEVNEKMLHLTSKSLLNTVVGMDIVSLGKVPLFLTPIVRYKNPVKNKKRSQLTSRISSSVSPSNVIPNSLTSSVSNFSVSSFLNNLKEDTEWLYTFPIGCNISFYSTTEMRSLRSPWENLMREHQFEPTAKMHELQMMGVLEAESAKISIPLLQSDPLLKGSVFSEEVQEDYDERQFTGEAAVSANDVLSSSSPRHFSSHTPVNVDKSSYLEMNGHSLSTVISGKESISSFGAKVDDLKSTSKESARQFGKSALTERLQKLAGNSSNVSSSLQTSSSNKSSLLTKKSSFPALLKGFLALPATVTTSANPLGFKSTIQRPIPIKNNEDSDSCKAFSQAPPIATKKPPTFLKPNSPEYAKTVIPKSSTNLENEYQTPWKIIQNPFKLKETTADNDPVSLRWEHLYMKVQDVRKFNWLSMCTPGALPLTFSYFPSEEELNDKFEEYTYTIGIDPEFTQMNQQELLAEMICQRLSRGYQIVVNPAAAVSYSGNPKANKAGTITDFSRSVNNQRNGHLTVGSDAVCLSLGDSQFHRLSCDSVGYNIEVKRYVKKVSGQGKMRYDYNFWSKNECKYVKSNITFSANDSANYNWNYVDQLICGFETYLPDSVKYWRARFVLLPMSTTSTHVFQKYQLLDHADALSDEEFRVEGIYKLSELLYKGKIDPMNDSNNKTPNTSPAELLGIKFTTLPMAQYIHSELEALRLDSSRNEQSLFMPNKRLDCSADLHTIAKEIQGPGGPKIDDITWHYRIYENCFLGSEFVSWLANTFIGINTREEALKYGNKLLSLGLFDHALKKHPLLDGYYVYRISPDYSIKPVSNRPYRSWFSRKKDSGQKHLDNKIITESEAGPSRLELSRRILFNADVEKKNGKSETVTVHYDLLHNPASCYHIRIEWLLATASVIEKLLQSWSRILERYGLKLVEAPIHEIAAVGELNPFDQVSIISLALDPPPIPERAPLVNDPVNYSKNWWNVKILEHFDFILDTEAASTFPKSITAVYSWGKPNFRYVQYIHRTGTVLVQIDDDQRFLWLPNRLHNSKVSKLSFTKSNKSTLNPNLKETAEELERKFREFCSNKDELDQFYGIVNHASDDRRSIYSSASTHASNASADDASNVNV
For B1, the binding result is given as “binds”.
